At least one compound was matched to its structure with a doubt left.
Columns and labels:
deoxyribose [1] = test: TBARS assay, existing sonodynamic agents with a metal, ultrasound (Example 13); assay type: biochemical; conditions: 0.025 mM ferrous iron, 0.025 mM ferric iron
Protocol: (§1) All solutions were prepared in pH 7.5 phosphate buffer containing approximately 2 mM deoxyribose, 0.01% hydrogen peroxide, 0.025 mM ferrous iron, 0.025 mM ferric iron, and the additives indicated in the table below. Solutions were sonicated at 30 W, 2 MHz, 32-34 degrees Celsius for ten minutes using a PZT-8 1.8 cm diameter custom transducer. The sonicated solution was placed on an orbit shaker rotating at 25 RPM to ensure even sonication of the solution while the transducer was held stationary. Control solutions were placed in a controlled temperature bath at 32-34 degrees Celsius without sonication. After 10 minutes of treatment, 1 mL test solution was placed in a test tube followed by 2 mL of 1% 2-thiobarbituric acid and 2 mL of 2.8% trichloroacetic acid. The test tube was sealed and heated to 90 degrees Celsius for 30 minutes and allowed to cool to room temperature for 20 minutes. The absorbance at 532 nm was measured. The enhanced radical production during ultrasound exposure was determined by comparing the amount of deoxyribose degradation that occurs in the sonicated solution versus the control solution using the following equation: [formula]

deoxyribose [2] = test: TBARS assay, existing sonodynamic agents with a metal, ultrasound (Example 14); assay type: biochemical; conditions: 0.025 mM additive; 0.025 mM ferrous iron, 0.025 mM ferric iron
Protocol: as §1, with “are” for “were”, “is” for “was”

[3] = Free radical production when exposed to ultrasound and a metal (statements in the description); assay type: biochemical; conditions: added to iron, ultrasound
[4] = cited from earlier work

In the case of `CC1=C(CCC(=O)O)c2cc3[nH]c(cc4nc(cc5[nH]c(cc1n2)c(C)c5C(C)O)C(C)=C4C(C)O)c(C)c3CCC(=O)O` (centres unmarked) [Hematoporphyrin], the “% Ultrasound Mediated Activity vs Control” value (deoxyribose [1]; 0.027 mM additive) is reported as 24%.
With `Cc1cc(O)c2c(=O)c3c(O)cc(O)c4c5c(O)cc(O)c6c(=O)c7c(O)cc(C)c8c1c2c(c34)c(c78)c65` [Hypericin] the “% Ultrasound Mediated Activity vs Control” value (deoxyribose [2]) was over 30%.
In the case of `CN(C)[C@@H]1C(O)=C(C(N)=O)C(=O)[C@@]2(O)C(O)=C3C(=O)c4c(O)cccc4[C@@](C)(O)[C@H]3C[C@@H]12` [Tetracycline], the “% Ultrasound Mediated Activity vs Control” value (deoxyribose [1]; 0.030 mM additive) is reported as 51% and the radical production [3] is reported as “radical production was increased”.
In the case of `O=C1O[C@H]([C@@H](O)CO)C(O)=C1O` [ascorbate], the standard reduction potential [4] is given as −0.127 V.

From patent US20030082101A1, “Accelerators for increasing the rate of formation of free radicals and reactive oxygen species” (Cavalier Discovery, priority 2001, published 2003)
